# Results published in the supplement of paper PMC8728848.
# The other results are listed elsewhere or left out.
# B1: SrpA (Streptococcus sanguis) (protein)
# chain: SSKSESTVNSQSASSETNRSSTNNGSTSSSSETARVRKRRATDTTPPTITVPSDIIAYRGEEFEFYFEITDDSGQVKNIELSTFGKPLGLNWLEYSEDNFNVPGNATSDNPLRVRVHGTVPLNEPIPADKNRAQFTRTIRAWDAAGNVSSNITFVIKYRAQTDKYNPADPTITYVDRLSSLSPSEKNAVEAAVRAANPQIPAAARITVSANGTVTITYPDSSTDTITANRVVKDLASSRSALT
# Columns and labels:
# Experiment in all cases: glycan array binding signal (z-score within array); higher = stronger binding
# Details in all cases: glycan notation: IUPAC condensed, linker removed
# Fuc(b1-3)GlcNAc = target: Fuc(b1-3)GlcNAc
# Outline: (§1)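 Arrays were curated from the Consortium for Functional Glycomics database, 3228 in total, and kept only where the protein sequence was available. Binding is expressed as a within-array Z-score. This score was averaged across arrays of the same protein sequence at different concentrations or buffers and across linkers, and negative values can be read as non-binding.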
# Gal(a1-2)Gal = target: Gal(a1-2)Gal
# Outline: as §1
# Gal(a1-3)Gal = target: Gal(a1-3)Gal
# Outline: as §1
# Gal(a1-3)Gal(b1-3)GlcNAc = target: Gal(a1-3)Gal(b1-3)GlcNAc
# Outline: as §1
# Gal(a1-3)Gal(b1-4)Glc = target: Gal(a1-3)Gal(b1-4)Glc
# Outline: as §1
# Gal(a1-3)Gal(b1-4)GlcNAc = target: Gal(a1-3)Gal(b1-4)GlcNAc
# Outline: as §1
# [1] = target: Gal(a1-3)Gal(b1-4)[Fuc(a1-3)]GlcNAc
# Outline: as §1
# Gal(a1-3)GalNAc = target: Gal(a1-3)GalNAc
# Outline: as §1
# [2] = target: Gal(a1-3)[Gal(a1-4)]Gal(b1-4)GlcNAc
# Outline: as §1
# Gal(a1-4)Gal(b1-4)Glc = target: Gal(a1-4)Gal(b1-4)Glc
# Outline: as §1
# Gal(a1-4)Gal(b1-4)GlcNAc = target: Gal(a1-4)Gal(b1-4)GlcNAc
# Outline: as §1
# Gal(a1-4)GlcNAc = target: Gal(a1-4)GlcNAc
# Outline: as §1
# Gal(a1-6)Glc = target: Gal(a1-6)Glc
# Outline: as §1
# Gal(b1-2)Gal = target: Gal(b1-2)Gal
# Outline: as §1
# Gal(b1-3)Gal = target: Gal(b1-3)Gal
# Outline: as §1
# Gal(b1-3)GalNAc = target: Gal(b1-3)GalNAc
# Outline: as §1
# [3] = target: Gal(b1-3)GalNAc(b1-3)Gal(a1-4)Gal(b1-4)Glc
# Outline: as §1
# [4] = target: Gal(b1-3)GalNAc(b1-4)Gal(b1-4)Glc
# Outline: as §1
# [5] = target: Gal(b1-3)GalNAc(b1-4)[Neu5Ac(a2-3)]Gal(b1-4)Glc
# Outline: as §1
# Gal(b1-3)GlcNAc = target: Gal(b1-3)GlcNAc
# Outline: as §1
# [6] = target: Gal(b1-3)GlcNAc(b1-3)Gal(b1-3)GlcNAc
# Outline: as §1
# [7] = target: Gal(b1-3)GlcNAc(b1-3)Gal(b1-4)Glc
# Outline: as §1
# [8] = target: Gal(b1-3)GlcNAc(b1-3)Gal(b1-4)GlcNAc
# Outline: as §1
# [9] = target: Gal(b1-3)[Fuc(a1-4)]GlcNAc
# Outline: as §1
# [10] = target: Gal(b1-3)[Fuc(a1-4)]GlcNAc(b1-3)Gal(b1-3)[Fuc(a1-4)]GlcNAc
# Outline: as §1
# [11] = target: Gal(b1-3)[Fuc(a1-4)]GlcNAc(b1-3)Gal(b1-4)GlcNAc
# Outline: as §1
# [12] = target: Gal(b1-3)[Fuc(a1-4)]GlcNAc(b1-3)Gal(b1-4)[Fuc(a1-3)]GlcNAc
# Outline: as §1
# [13] = target: Gal(b1-3)[GlcNAc(b1-6)]GalNAc
# Outline: as §1
# [14] = target: Gal(b1-3)[Neu5Ac(a2-6)]GalNAc
# Outline: as §1
# [15] = target: Gal(b1-3)[Neu5Ac(a2-6)]GlcNAc(b1-6)Gal(b1-4)Glc
# Outline: as §1
# [16] = target: Gal(b1-3)[Neu5Ac(b2-6)]GalNAc
# Outline: as §1
# [17] = target: Gal(b1-4)GalNAc(a1-3)[Fuc(a1-2)]Gal(b1-4)GlcNAc
# Outline: as §1
# [18] = target: Gal(b1-4)GalNAc(b1-3)[Fuc(a1-2)]Gal(b1-4)GlcNAc
# Outline: as §1
# Gal(b1-4)Glc = target: Gal(b1-4)Glc
# Outline: as §1
# Gal(b1-4)Glc6S = target: Gal(b1-4)Glc6S
# Outline: as §1
# Gal(b1-4)GlcNAc = target: Gal(b1-4)GlcNAc
# Outline: as §1
# [19] = target: Gal(b1-4)GlcNAc(b1-2)Man(a1-3)[Gal(b1-4)GlcNAc(b1-2)Man(a1-6)]Man(b1-4)GlcNAc(b1-4)GlcNAc
# Outline: as §1
# [20] = target: Gal(b1-4)GlcNAc(b1-3)Gal(b1-3)GlcNAc
# Outline: as §1
# [21] = target: Gal(b1-4)GlcNAc(b1-3)Gal(b1-4)Glc
# Outline: as §1
# [22] = target: Gal(b1-4)GlcNAc(b1-3)Gal(b1-4)GlcNAc
# Outline: as §1
# [23] = target: Gal(b1-4)GlcNAc(b1-3)Gal(b1-4)GlcNAc(b1-3)Gal(b1-4)GlcNAc
# Outline: as §1
# [24] = target: Gal(b1-4)GlcNAc(b1-3)Gal(b1-4)[Fuc(a1-3)]GlcNAc(b1-3)Gal(b1-4)[Fuc(a1-3)]GlcNAc
# Outline: as §1
# [25] = target: Gal(b1-4)GlcNAc(b1-3)GalNAc
# Outline: as §1
# [26] = target: Gal(b1-4)GlcNAc(b1-3)[Gal(b1-4)GlcNAc(b1-6)]GalNAc
# Outline: as §1
# [27] = target: Gal(b1-4)GlcNAc(b1-6)Gal(b1-4)GlcNAc(b1-6)GalNAc
# Outline: as §1
binder,measurement,setting,value
B1,glycan array binding signal (z-score),Fuc(b1-3)GlcNAc,-0.308
same,glycan array binding signal (z-score),Gal(a1-2)Gal,-0.053
same,glycan array binding signal (z-score),Gal(a1-3)Gal,1.1
same,glycan array binding signal (z-score),Gal(a1-3)Gal(b1-3)GlcNAc,-0.516
same,glycan array binding signal (z-score),Gal(a1-3)Gal(b1-4)Glc,0.291
same,glycan array binding signal (z-score),Gal(a1-3)Gal(b1-4)GlcNAc,0.339
same,glycan array binding signal (z-score),[1],-0.1
same,glycan array binding signal (z-score),Gal(a1-3)GalNAc,-0.317
same,glycan array binding signal (z-score),[2],-0.031
same,glycan array binding signal (z-score),Gal(a1-4)Gal(b1-4)Glc,0.244
same,glycan array binding signal (z-score),Gal(a1-4)Gal(b1-4)GlcNAc,-0.222
same,glycan array binding signal (z-score),Gal(a1-4)GlcNAc,0.588
same,glycan array binding signal (z-score),Gal(a1-6)Glc,0.965
same,glycan array binding signal (z-score),Gal(b1-2)Gal,-0.396
same,glycan array binding signal (z-score),Gal(b1-3)Gal,-0.023
same,glycan array binding signal (z-score),Gal(b1-3)GalNAc,-0.369
same,glycan array binding signal (z-score),[3],0.388
same,glycan array binding signal (z-score),[4],-0.136
same,glycan array binding signal (z-score),[5],-0.532
same,glycan array binding signal (z-score),Gal(b1-3)GlcNAc,0.089
same,glycan array binding signal (z-score),[6],-0.335
same,glycan array binding signal (z-score),[7],-0.479
same,glycan array binding signal (z-score),[8],-0.482
same,glycan array binding signal (z-score),[9],-0.359
same,glycan array binding signal (z-score),[10],-0.44
same,glycan array binding signal (z-score),[11],-0.372
same,glycan array binding signal (z-score),[12],-0.343
same,glycan array binding signal (z-score),[13],-0.663
same,glycan array binding signal (z-score),[14],-0.333
same,glycan array binding signal (z-score),[15],-0.475
same,glycan array binding signal (z-score),[16],-0.742
same,glycan array binding signal (z-score),[17],-0.52
same,glycan array binding signal (z-score),[18],-0.16
same,glycan array binding signal (z-score),Gal(b1-4)Glc,-0.187
same,glycan array binding signal (z-score),Gal(b1-4)Glc6S,0.135
same,glycan array binding signal (z-score),Gal(b1-4)GlcNAc,0.182
same,glycan array binding signal (z-score),[19],-0.189
same,glycan array binding signal (z-score),[20],-0.381
same,glycan array binding signal (z-score),[21],-0.471
same,glycan array binding signal (z-score),[22],-0.43
same,glycan array binding signal (z-score),[23],0.016
same,glycan array binding signal (z-score),[24],0.199
same,glycan array binding signal (z-score),[25],-0.071
same,glycan array binding signal (z-score),[26],-0.645
same,glycan array binding signal (z-score),[27],-0.076

# 3 entries from above, with bars between the fields:
binder | measurement | setting | value
B1 | glycan array binding signal (z-score) | [3] | 0.388
same | glycan array binding signal (z-score) | [4] | -0.136
same | glycan array binding signal (z-score) | [5] | -0.532
